Source: patent US9079858B2, “Rock kinase inhibitors” (Amakem NV, priority 2011, dated 2015)
The name of at least one read-out is uncertain.

Assay: Pharmacokinetics after intravenous and oral administration in mice
Type: in vivo, male CD-1 mice
Conditions: oral 1 mg/kg
Procedure: The bioavailability of compound 1 was evaluated after intravenous and oral dosing in male CD-1 mice. The compound was dosed at 0.1 mg/kg intravenously and 1 mg/kg orally. Plasma levels were determined by LC-MS/MS and pharmacokinetic parameters were estimated by a non-compartmental model using WinNonlin v5.2.1 software.

COC(=O)c1ccc(NC(=O)c2cccc(-c3cc(C(=O)Nc4ccncc4F)ccc3CN)c2)cc1 [Compound 1, methyl 4-({3-[2-(aminomethyl)-5-[(3-fluoropyridin-4-yl)carbamoyl]phenyl]phenyl}amido)benzoate]
time of Cmax post dose: 15 min
